In the supplement of paper PMC10849652:
The other results are listed elsewhere or left out.

By UniProt entry, the sequences of proteins in these tests, tags left out. Where a name states a change or a piece, a line headed by the entry shows the natural chain unless it says otherwise.
UniProt Q86WN1: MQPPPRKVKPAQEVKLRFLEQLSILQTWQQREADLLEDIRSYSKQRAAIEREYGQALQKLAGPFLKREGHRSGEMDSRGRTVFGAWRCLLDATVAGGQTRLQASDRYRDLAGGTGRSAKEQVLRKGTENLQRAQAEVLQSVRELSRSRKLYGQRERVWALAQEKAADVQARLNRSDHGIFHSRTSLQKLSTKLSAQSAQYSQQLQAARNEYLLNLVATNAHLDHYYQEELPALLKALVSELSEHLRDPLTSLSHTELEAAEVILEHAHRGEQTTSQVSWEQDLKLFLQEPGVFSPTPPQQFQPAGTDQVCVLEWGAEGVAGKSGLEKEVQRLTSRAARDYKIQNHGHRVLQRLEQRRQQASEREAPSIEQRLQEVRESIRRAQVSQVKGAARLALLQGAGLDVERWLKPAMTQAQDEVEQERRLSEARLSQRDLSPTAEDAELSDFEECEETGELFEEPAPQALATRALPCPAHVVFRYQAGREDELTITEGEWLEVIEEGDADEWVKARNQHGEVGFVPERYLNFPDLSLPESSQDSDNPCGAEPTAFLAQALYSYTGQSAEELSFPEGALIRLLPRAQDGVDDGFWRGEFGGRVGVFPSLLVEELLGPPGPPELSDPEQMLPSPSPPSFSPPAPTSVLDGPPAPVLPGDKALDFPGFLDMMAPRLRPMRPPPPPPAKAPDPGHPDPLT
UniProt Q96IG2: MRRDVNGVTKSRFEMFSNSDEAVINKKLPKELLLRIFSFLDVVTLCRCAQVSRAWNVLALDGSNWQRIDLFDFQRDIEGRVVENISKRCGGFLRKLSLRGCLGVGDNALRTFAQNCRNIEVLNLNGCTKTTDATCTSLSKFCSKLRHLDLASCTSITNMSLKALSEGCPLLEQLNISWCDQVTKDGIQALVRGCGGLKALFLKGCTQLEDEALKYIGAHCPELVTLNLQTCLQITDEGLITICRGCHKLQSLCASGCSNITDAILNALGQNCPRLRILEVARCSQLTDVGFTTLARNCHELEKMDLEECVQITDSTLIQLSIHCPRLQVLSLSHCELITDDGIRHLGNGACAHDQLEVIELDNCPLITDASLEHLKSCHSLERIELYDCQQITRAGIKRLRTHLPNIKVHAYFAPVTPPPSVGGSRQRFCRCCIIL
UniProt Q9Y285: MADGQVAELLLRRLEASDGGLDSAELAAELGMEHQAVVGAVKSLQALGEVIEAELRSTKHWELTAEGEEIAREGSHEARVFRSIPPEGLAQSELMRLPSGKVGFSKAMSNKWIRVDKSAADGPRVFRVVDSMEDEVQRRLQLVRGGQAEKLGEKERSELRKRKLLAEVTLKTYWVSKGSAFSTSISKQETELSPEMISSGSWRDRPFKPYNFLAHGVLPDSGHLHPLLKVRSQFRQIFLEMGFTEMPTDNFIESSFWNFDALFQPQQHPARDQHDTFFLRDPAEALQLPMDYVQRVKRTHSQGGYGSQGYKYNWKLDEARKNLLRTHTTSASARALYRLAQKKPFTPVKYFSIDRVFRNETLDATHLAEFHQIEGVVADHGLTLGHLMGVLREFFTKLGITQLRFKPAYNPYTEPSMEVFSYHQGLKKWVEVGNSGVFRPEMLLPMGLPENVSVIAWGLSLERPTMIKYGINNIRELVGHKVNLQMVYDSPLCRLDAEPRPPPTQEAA
UniProt Q8NB91: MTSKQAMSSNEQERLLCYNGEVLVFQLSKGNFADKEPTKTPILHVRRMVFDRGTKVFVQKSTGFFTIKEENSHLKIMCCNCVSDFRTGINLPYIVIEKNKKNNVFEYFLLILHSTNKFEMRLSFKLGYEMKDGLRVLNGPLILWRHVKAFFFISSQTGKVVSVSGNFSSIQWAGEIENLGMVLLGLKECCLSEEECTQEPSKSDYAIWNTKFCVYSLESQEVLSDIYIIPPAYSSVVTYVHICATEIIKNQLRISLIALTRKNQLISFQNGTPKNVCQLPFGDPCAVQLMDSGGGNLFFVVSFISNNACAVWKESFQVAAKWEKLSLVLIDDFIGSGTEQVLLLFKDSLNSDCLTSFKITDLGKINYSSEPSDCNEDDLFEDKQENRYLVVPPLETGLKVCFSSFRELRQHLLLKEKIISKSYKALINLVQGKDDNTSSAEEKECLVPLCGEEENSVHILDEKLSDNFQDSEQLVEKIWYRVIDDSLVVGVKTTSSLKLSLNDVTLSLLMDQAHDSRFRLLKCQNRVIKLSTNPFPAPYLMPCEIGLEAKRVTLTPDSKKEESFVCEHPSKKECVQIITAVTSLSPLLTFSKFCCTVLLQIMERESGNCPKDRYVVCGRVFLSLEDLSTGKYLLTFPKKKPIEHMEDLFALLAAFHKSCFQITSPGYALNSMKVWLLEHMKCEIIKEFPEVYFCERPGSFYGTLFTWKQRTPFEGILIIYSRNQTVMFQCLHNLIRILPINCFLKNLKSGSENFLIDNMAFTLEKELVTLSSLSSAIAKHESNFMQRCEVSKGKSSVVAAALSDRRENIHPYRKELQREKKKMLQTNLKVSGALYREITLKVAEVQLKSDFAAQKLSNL
UniProt Q9UIM3: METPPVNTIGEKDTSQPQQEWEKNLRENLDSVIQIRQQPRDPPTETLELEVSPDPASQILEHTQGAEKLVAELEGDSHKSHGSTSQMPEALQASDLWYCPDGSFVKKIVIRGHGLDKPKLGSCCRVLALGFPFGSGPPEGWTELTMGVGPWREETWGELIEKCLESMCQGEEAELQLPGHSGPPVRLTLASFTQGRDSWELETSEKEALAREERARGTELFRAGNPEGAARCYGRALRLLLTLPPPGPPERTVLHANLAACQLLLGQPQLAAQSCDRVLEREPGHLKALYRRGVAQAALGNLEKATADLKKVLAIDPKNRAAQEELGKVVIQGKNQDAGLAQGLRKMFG
UniProt Q8NFG4: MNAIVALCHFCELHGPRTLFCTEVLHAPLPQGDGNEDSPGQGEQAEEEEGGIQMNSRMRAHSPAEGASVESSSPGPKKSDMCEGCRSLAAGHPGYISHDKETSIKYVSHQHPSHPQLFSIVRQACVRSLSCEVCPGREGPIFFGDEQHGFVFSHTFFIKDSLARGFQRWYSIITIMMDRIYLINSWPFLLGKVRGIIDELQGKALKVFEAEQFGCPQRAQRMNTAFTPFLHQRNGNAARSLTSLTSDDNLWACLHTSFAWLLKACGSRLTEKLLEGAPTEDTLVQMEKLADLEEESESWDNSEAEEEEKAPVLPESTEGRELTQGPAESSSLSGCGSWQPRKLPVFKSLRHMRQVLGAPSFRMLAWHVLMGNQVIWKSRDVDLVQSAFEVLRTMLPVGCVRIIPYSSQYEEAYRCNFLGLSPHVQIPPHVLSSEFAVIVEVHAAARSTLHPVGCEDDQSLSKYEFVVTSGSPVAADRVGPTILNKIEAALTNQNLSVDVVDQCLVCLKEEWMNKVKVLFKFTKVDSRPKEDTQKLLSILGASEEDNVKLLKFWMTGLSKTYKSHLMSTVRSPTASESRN
UniProt Q92520: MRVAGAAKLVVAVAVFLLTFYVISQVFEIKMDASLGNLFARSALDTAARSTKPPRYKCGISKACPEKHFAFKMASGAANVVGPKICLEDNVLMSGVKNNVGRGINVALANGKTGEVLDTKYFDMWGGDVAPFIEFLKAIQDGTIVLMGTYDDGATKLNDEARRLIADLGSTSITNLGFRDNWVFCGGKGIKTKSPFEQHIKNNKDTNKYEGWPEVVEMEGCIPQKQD
UniProt P09038, whole entry, looked up: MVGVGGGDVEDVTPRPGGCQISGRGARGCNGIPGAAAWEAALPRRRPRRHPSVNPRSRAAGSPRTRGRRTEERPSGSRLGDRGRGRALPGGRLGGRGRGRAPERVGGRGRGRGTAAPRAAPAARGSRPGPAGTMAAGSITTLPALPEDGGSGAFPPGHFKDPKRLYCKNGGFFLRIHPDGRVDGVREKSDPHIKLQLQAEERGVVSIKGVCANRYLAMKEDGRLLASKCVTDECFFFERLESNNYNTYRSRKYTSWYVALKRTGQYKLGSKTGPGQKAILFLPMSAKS
UniProt Q9H0X4: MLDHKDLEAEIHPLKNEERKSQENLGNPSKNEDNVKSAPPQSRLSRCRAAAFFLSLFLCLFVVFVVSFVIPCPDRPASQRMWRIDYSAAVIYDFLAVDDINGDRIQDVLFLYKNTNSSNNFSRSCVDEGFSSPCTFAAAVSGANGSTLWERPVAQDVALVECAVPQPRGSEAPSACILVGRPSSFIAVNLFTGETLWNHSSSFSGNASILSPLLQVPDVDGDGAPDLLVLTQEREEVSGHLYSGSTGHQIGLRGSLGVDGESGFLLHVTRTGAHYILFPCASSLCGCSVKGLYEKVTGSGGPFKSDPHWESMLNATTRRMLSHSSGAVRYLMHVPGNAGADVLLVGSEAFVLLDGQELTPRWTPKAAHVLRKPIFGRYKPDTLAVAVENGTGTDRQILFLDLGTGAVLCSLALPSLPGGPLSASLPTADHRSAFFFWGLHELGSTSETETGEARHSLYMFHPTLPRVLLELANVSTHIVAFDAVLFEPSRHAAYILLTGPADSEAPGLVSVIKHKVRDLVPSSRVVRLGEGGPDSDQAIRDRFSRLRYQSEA
UniProt Q13643: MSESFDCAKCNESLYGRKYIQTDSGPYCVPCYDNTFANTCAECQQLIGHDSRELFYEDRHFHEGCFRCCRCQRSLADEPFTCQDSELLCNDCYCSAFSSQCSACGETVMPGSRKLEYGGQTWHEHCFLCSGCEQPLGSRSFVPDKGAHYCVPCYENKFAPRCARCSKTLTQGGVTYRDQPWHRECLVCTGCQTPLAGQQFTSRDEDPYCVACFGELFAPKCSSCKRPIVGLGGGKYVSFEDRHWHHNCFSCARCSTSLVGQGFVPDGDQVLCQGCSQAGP
UniProt Q9NYY8: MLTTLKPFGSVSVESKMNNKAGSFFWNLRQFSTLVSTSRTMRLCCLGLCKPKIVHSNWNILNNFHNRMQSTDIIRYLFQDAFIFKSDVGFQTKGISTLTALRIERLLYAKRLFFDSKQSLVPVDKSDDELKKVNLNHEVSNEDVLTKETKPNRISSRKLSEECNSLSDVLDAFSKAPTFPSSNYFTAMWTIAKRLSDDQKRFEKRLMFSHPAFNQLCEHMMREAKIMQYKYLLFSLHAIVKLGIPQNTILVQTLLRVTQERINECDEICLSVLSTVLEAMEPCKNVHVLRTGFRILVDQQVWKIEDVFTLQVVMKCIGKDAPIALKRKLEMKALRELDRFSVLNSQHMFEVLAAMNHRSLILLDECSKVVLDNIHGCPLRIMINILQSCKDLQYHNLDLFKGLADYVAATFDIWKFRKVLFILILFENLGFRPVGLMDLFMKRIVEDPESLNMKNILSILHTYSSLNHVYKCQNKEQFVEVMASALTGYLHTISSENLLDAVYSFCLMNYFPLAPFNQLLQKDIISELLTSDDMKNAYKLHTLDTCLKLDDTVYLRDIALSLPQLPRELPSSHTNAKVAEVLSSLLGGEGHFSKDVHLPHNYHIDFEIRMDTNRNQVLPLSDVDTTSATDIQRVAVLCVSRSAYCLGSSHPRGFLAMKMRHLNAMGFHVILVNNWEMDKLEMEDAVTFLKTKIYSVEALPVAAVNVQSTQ
UniProt Q96HJ9: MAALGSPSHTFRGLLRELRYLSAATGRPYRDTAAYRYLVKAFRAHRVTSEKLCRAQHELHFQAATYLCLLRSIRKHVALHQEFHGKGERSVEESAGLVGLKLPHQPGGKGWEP
UniProt Q9Y3I1: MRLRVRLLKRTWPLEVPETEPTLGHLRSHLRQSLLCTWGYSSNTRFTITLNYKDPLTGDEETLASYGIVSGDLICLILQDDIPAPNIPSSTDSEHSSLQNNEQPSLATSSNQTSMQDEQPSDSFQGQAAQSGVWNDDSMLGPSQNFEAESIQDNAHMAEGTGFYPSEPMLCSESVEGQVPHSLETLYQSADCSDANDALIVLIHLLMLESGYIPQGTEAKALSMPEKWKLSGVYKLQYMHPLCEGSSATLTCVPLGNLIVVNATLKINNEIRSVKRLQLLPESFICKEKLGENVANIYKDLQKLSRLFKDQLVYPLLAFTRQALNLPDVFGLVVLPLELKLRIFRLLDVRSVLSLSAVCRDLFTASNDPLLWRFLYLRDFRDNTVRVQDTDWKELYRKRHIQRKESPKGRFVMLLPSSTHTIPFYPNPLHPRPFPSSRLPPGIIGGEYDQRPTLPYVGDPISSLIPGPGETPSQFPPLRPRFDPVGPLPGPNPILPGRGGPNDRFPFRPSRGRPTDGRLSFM
UniProt Q02790: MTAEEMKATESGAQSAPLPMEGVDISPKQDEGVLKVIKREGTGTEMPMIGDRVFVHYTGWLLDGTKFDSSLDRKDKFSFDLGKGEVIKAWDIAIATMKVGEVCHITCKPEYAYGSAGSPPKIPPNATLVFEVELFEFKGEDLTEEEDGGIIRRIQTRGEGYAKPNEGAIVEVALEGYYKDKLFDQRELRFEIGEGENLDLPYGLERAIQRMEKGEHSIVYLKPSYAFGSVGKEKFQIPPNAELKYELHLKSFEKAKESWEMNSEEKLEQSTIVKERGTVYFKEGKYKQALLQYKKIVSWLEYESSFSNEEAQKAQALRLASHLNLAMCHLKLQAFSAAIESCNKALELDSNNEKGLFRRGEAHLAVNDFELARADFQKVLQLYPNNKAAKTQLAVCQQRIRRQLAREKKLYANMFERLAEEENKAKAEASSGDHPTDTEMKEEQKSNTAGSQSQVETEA

Tests used:
Test in all cases: log2 fold change, soluble protein after heating vs DMSO (PISA); higher = thermal stabilisation; K562 cells, 10 uM, 30 min; active = over 0.2 and 3.5 SD of the protein, either way, in both replicates (recomputed)
[1] = compound: CS(=O)(=O)c1ccc(-c2cnc(N)c(C(=O)Nc3ccccc3)n2)cc1
In short: (§1)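 Soluble protein was quantified by TMTpro 16plex LC-MS/MS after channel sums were equalised. It was obtained as the supernatant after 21,000xg for 90 min from pooled aliquots of K562 cells (2×10^6 cells/mL, 10 μM compound, 30 min) heated for 3 min across 48°C-58°C and extracted in PBS with 0.5% NP-40 at 4°C. Thermal stability values are relative to control samples and come from duplicates. They are given as log2 fold changes.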

crizotinib = compound: C[C@@H](Oc1cc(-c2cnn(C3CCNCC3)c2)cnc1N)c1c(Cl)ccc(F)c1Cl [crizotinib]
In short: as §1

[2] = compound: C[C@@H]1COCCN1C2=NC(=NC(=C2)C3(CC3)S(=O)(=O)C)C4=C5C=CNC5=CC=C4
In short: as §1

[3] = compound: C[C@H](C1=CC=C(C=C1)C(=O)NC2=C3C=CNC3=NC=C2)N
In short: as §1

duvelisib = compound: C[C@H](Nc1ncnc2nc[nH]c12)c1cc2cccc(Cl)c2c(=O)n1-c1ccccc1 [duvelisib]
In short: as §1

gandotinib = compound: Cc1cc(Nc2cc(CN3CCOCC3)c3nc(C)c(Cc4ccc(Cl)cc4F)n3n2)n[nH]1 [gandotinib]
In short: as §1

[4] = compound: Cc1cc(SCc2sc(-c3ccc(C(F)(F)F)cc3)nc2C)ccc1OCC(=O)O
In short: as §1

doramapimod = compound: Cc1ccc(-n2nc(C(C)(C)C)cc2NC(=O)Nc2ccc(OCCN3CCOCC3)c3ccccc23)cc1 [doramapimod]
In short: as §1

ispinesib = compound: Cc1ccc(C(=O)N(CCCN)[C@@H](c2nc3cc(Cl)ccc3c(=O)n2Cc2ccccc2)C(C)C)cc1 [ispinesib]
In short: as §1

[5] = compound: Cc1cccc(CC(=O)N2CCc3c2ccc(-c2cn(C)c4ncnc(N)c24)c3F)n1
In short: as §1

dasatinib = compound: Cc1nc(Nc2ncc(C(=O)Nc3c(C)cccc3Cl)s2)cc(N2CCN(CCO)CC2)n1 [dasatinib]
In short: as §1

[6] = compound: Cn1cc(-c2ccc3c(c2)CCN3C(=O)Cc2cccc(C(F)(F)F)c2)c2c(N)ncnc21
In short: as §1

[7] = compound: Cn1cc(-c2ccc3nnc(C(F)(F)c4ccc5ncccc5c4)n3n2)cn1
In short: as §1

tipifarnib = compound: Cn1cncc1[C@@](N)(c1ccc(Cl)cc1)c1ccc2c(c1)c(-c1cccc(Cl)c1)cc(=O)n2C [tipifarnib]
In short: as §1

tozasertib = compound: Cc1cc(Nc2cc(N3CCN(C)CC3)nc(Sc3ccc(NC(=O)C4CC4)cc3)n2)n[nH]1 [tozasertib]
In short: as §1

bafetinib = compound: Cc1ccc(NC(=O)c2ccc(CN3CC[C@H](N(C)C)C3)c(C(F)(F)F)c2)cc1Nc1nccc(-c2cncnc2)n1 [bafetinib]
In short: as §1

nilotinib = compound: Cc1cn(-c2cc(NC(=O)c3ccc(C)c(Nc4nccc(-c5cccnc5)n4)c3)cc(C(F)(F)F)c2)cn1 [nilotinib]
In short: as §1

[8] = compound: Cc1nc(Nc2n[nH]c3c2CN(C(=O)N[C@H](CN(C)C)c2ccccc2)C3(C)C)c2sccc2n1
In short: as §1

[9] = compound: Cc1ncc(-c2ccnc(Nc3ccc(S(C)(=O)=O)cc3)n2)n1C(C)C
In short: as §1

mubritinib = compound: FC(F)(F)c1ccc(/C=C/c2nc(COc3ccc(CCCCn4ccnn4)cc3)co2)cc1 [mubritinib]
In short: as §1

Measured: log2 fold change

FCHSD1 (UniProt Q86WN1)
inactive: [1] 0.019 | crizotinib -0.01 | [2] 0.015 | [3] -0.049 | duvelisib 0.093 | gandotinib -0.083 | [4] -0.012 | doramapimod 0.03 | ispinesib 0.051 | [5] -0.008 | dasatinib -0.071 | [6] 0.154 | [7] 0.194 | tipifarnib -0.191

FBLL1 (UniProt A6NHQ2)
inactive: [1] 0.036 | crizotinib 0.038 | [2] -0.217 | [3] 0.217 | duvelisib -0.046 | gandotinib 0.3 | tozasertib 0.067 | [4] -0.011 | doramapimod 0.144 | ispinesib 0.2 | bafetinib 0.298 | [5] 0.043 | nilotinib 0.061 | [8] -0.15 | dasatinib 0.269 | [9] -0.121 | [6] -0.479 | [7] -0.197 | tipifarnib 0.146 | mubritinib -0.153

FBXL20 (UniProt Q96IG2)
inactive: [1] -0.002 | crizotinib 0.075 | [2] 0.088 | [3] -0.147 | duvelisib 0.052 | gandotinib -0.05 | tozasertib -0.06 | [4] -0.052 | doramapimod 0.09 | ispinesib -0.016 | bafetinib 0.038 | [5] 0.085 | nilotinib -0.003 | [8] 0.008 | dasatinib -0.031 | [9] -0.02 | [6] 0.027 | [7] -0.065 | tipifarnib -0.018 | mubritinib 0.073

FARSA (UniProt Q9Y285)
inactive: [1] 0 | crizotinib 0.018 | [2] 0.09 | [3] 0.014 | duvelisib -0.007 | gandotinib -0.014 | tozasertib -0.016 | [4] 0.057 | doramapimod -0.01 | ispinesib -0.036 | bafetinib 0.021 | [5] 0.071 | nilotinib -0.064 | [8] -0.009 | dasatinib -0.06 | [9] 0.021 | [6] 0.024 | [7] 0.008 | tipifarnib -0.088 | mubritinib 0.03

FANCB (UniProt Q8NB91)
inactive: [1] -0.025 | crizotinib 0.07 | [2] -0.032 | [3] -0.043 | duvelisib -0.056 | gandotinib -0.034 | tozasertib -0.053 | [4] -0.06 | doramapimod -0.005 | ispinesib -0.013 | bafetinib -0.014 | [5] 0.02 | nilotinib 0.019 | [8] 0.006 | dasatinib 0.006 | [9] -0.031 | [6] 0.063 | [7] 0.043 | tipifarnib 0.022 | mubritinib 0.073

FKBPL (UniProt Q9UIM3)
inactive: [1] 0.014 | crizotinib 0.01 | [2] 0.058 | [3] -0.074 | duvelisib 0.014 | gandotinib -0.032 | tozasertib -0.002 | [4] -0.04 | doramapimod -0.037 | ispinesib -0.064 | bafetinib -0.04 | [5] -0.041 | nilotinib -0.016 | [8] -0.038 | dasatinib -0.005 | [9] 0.002 | [6] 0.039 | [7] -0.016 | tipifarnib 0.01 | mubritinib 0.009

FLCN (UniProt Q8NFG4)
inactive: [1] 0.048 | crizotinib -0.286 | [2] 0.199 | [3] 0.18 | duvelisib -0.075 | gandotinib 0.071 | tozasertib -0.143 | [4] 0.069 | doramapimod 0.005 | ispinesib -0.252 | [5] -0.171 | nilotinib -0.166 | [8] 0.114 | dasatinib 0.031 | [9] 0.141 | [6] -0.046 | [7] 0.044 | mubritinib 0.021

FAM3C (UniProt Q92520)
inactive: [1] 0.011 | crizotinib -0.016 | [2] 0.145 | [3] -0.039 | duvelisib 0.016 | gandotinib 0.004 | tozasertib -0.021 | [4] -0.089 | doramapimod -0.023 | ispinesib 0.016 | bafetinib -0.056 | [5] -0.024 | nilotinib 0.095 | [8] -0.161 | dasatinib 0.026 | [9] -0.006 | [6] -0.019 | [7] 0.056 | tipifarnib 0.036 | mubritinib 0.027

4 neighbouring records from above:
FANCB (UniProt Q8NB91)
inactive: [1] -0.025 | crizotinib 0.07 | [2] -0.032 | [3] -0.043 | duvelisib -0.056 | gandotinib -0.034 | tozasertib -0.053 | [4] -0.06 | doramapimod -0.005 | ispinesib -0.013 | bafetinib -0.014 | [5] 0.02 | nilotinib 0.019 | [8] 0.006 | dasatinib 0.006 | [9] -0.031 | [6] 0.063 | [7] 0.043 | tipifarnib 0.022 | mubritinib 0.073

FKBPL (UniProt Q9UIM3)
inactive: [1] 0.014 | crizotinib 0.01 | [2] 0.058 | [3] -0.074 | duvelisib 0.014 | gandotinib -0.032 | tozasertib -0.002 | [4] -0.04 | doramapimod -0.037 | ispinesib -0.064 | bafetinib -0.04 | [5] -0.041 | nilotinib -0.016 | [8] -0.038 | dasatinib -0.005 | [9] 0.002 | [6] 0.039 | [7] -0.016 | tipifarnib 0.01 | mubritinib 0.009

FLCN (UniProt Q8NFG4)
inactive: [1] 0.048 | crizotinib -0.286 | [2] 0.199 | [3] 0.18 | duvelisib -0.075 | gandotinib 0.071 | tozasertib -0.143 | [4] 0.069 | doramapimod 0.005 | ispinesib -0.252 | [5] -0.171 | nilotinib -0.166 | [8] 0.114 | dasatinib 0.031 | [9] 0.141 | [6] -0.046 | [7] 0.044 | mubritinib 0.021

FAM3C (UniProt Q92520)
inactive: [1] 0.011 | crizotinib -0.016 | [2] 0.145 | [3] -0.039 | duvelisib 0.016 | gandotinib 0.004 | tozasertib -0.021 | [4] -0.089 | doramapimod -0.023 | ispinesib 0.016 | bafetinib -0.056 | [5] -0.024 | nilotinib 0.095 | [8] -0.161 | dasatinib 0.026 | [9] -0.006 | [6] -0.019 | [7] 0.056 | tipifarnib 0.036 | mubritinib 0.027

Carrying on.

FGF2 (UniProt P09038)
inactive: [1] -0.009 | crizotinib 0.043 | [2] 0.091 | [3] 0.088 | duvelisib -0.065 | gandotinib 0.016 | tozasertib -0.055 | [4] 0.042 | doramapimod 0.027 | ispinesib -0.079 | bafetinib -0.048 | [5] 0.143 | nilotinib 0.029 | [8] 0.029 | dasatinib 0.047 | [9] 0.007 | [6] -0.066 | [7] -0.01 | tipifarnib 0.101 | mubritinib -0.028

FAM234A (UniProt Q9H0X4)
inactive: [1] 0.009 | crizotinib 0.04 | [2] -0.021 | [3] -0.016 | duvelisib 0.053 | tozasertib -0.045 | [4] -0.025 | doramapimod 0.002 | ispinesib 0.127 | bafetinib -0.046 | nilotinib 0.006 | [8] -0.018 | dasatinib 0.038 | [9] -0.1 | [6] 0.185 | [7] -0.005 | tipifarnib 0.09 | mubritinib -0.05

FHL3 (UniProt Q13643)
inactive: [1] 0.054 | crizotinib 0.091 | [2] 0.047 | [3] -0.06 | duvelisib 0.008 | gandotinib 0.036 | tozasertib -0.04 | [4] -0.062 | doramapimod -0.037 | ispinesib 0.041 | bafetinib -0.058 | [5] -0.089 | nilotinib 0.003 | [8] 0.019 | dasatinib 0.049 | [9] -0.017 | [6] 0.01 | [7] -0.014 | tipifarnib -0.018 | mubritinib 0.004

FBXW2 (UniProt Q9UKT8)
inactive: [1] 0.083 | crizotinib 0.059 | [2] 0.003 | [3] 0.024 | duvelisib -0.108 | tozasertib -0.146 | [4] -0.039 | doramapimod 0.052 | ispinesib -0.104 | bafetinib 0.107 | dasatinib -0.005 | [6] 0.101 | [7] -0.13 | tipifarnib 0.01 | mubritinib 0.023

FASTKD2 (UniProt Q9NYY8)
inactive: [1] 0.019 | crizotinib -0.043 | [2] 0.061 | [3] -0.038 | duvelisib 0.005 | gandotinib -0.094 | tozasertib 0.02 | [4] 0.044 | doramapimod 0.019 | ispinesib -0.064 | bafetinib -0.066 | [5] -0.004 | nilotinib 0.012 | [8] -0.016 | dasatinib -0.097 | [9] -0.009 | [6] 0.041 | [7] 0.027 | tipifarnib -0.013 | mubritinib 0.015

FMC1 (UniProt Q96HJ9)
inactive: [1] 0.021 | crizotinib 0.195 | [2] -0.157 | [3] 0.082 | gandotinib 0.024 | [4] -0.018 | doramapimod -0.137 | ispinesib -0.314 | bafetinib -0.128 | [5] -0.026 | nilotinib 0.009 | [8] 0.045 | dasatinib 0.006 | [9] -0.012 | [6] -0.006 | [7] 0.009 | tipifarnib 0.035 | mubritinib 0.016

FBXO7 (UniProt Q9Y3I1)
inactive: [1] 0.038 | crizotinib 0.041 | [2] 0.061 | [3] -0.023 | gandotinib -0.194 | [4] 0.083 | doramapimod -0.029 | ispinesib 0.098 | bafetinib -0.026 | [5] -0.006 | nilotinib 0.003 | [8] 0.059 | dasatinib -0.102 | [9] 0 | [6] 0.065 | [7] -0.002 | tipifarnib 0.072 | mubritinib 0.07

FKBP4 (UniProt Q02790)
inactive: [1] 0.013 | crizotinib -0.008 | [2] 0.042 | [3] -0.068 | gandotinib -0.105 | [4] 0.077 | doramapimod -0.052 | ispinesib -0.017 | bafetinib -0.014 | [5] 0.017 | nilotinib -0.05 | [8] -0.011 | dasatinib -0.114 | [9] 0.024 | [6] 0.033 | [7] -0.002 | tipifarnib -0.092 | mubritinib 0.012

FBXW9 (UniProt Q5XUX1)
inactive: [1] 0.03 | crizotinib 0.014 | [2] 0.063 | [3] 0.121 | duvelisib 0.041 | tozasertib -0.014 | [4] 0.005 | doramapimod 0.019 | ispinesib 0.042 | bafetinib 0.03 | nilotinib -0.002 | [8] -0.035 | dasatinib -0.018 | [9] 0.087 | [6] 0.021 | [7] -0.118 | tipifarnib 0.003 | mubritinib 0.054
